Measurements taken from PMC9666630.

By UniProt entry, the sequences of proteins in these tests, tags left out.
UniProt F4JV59: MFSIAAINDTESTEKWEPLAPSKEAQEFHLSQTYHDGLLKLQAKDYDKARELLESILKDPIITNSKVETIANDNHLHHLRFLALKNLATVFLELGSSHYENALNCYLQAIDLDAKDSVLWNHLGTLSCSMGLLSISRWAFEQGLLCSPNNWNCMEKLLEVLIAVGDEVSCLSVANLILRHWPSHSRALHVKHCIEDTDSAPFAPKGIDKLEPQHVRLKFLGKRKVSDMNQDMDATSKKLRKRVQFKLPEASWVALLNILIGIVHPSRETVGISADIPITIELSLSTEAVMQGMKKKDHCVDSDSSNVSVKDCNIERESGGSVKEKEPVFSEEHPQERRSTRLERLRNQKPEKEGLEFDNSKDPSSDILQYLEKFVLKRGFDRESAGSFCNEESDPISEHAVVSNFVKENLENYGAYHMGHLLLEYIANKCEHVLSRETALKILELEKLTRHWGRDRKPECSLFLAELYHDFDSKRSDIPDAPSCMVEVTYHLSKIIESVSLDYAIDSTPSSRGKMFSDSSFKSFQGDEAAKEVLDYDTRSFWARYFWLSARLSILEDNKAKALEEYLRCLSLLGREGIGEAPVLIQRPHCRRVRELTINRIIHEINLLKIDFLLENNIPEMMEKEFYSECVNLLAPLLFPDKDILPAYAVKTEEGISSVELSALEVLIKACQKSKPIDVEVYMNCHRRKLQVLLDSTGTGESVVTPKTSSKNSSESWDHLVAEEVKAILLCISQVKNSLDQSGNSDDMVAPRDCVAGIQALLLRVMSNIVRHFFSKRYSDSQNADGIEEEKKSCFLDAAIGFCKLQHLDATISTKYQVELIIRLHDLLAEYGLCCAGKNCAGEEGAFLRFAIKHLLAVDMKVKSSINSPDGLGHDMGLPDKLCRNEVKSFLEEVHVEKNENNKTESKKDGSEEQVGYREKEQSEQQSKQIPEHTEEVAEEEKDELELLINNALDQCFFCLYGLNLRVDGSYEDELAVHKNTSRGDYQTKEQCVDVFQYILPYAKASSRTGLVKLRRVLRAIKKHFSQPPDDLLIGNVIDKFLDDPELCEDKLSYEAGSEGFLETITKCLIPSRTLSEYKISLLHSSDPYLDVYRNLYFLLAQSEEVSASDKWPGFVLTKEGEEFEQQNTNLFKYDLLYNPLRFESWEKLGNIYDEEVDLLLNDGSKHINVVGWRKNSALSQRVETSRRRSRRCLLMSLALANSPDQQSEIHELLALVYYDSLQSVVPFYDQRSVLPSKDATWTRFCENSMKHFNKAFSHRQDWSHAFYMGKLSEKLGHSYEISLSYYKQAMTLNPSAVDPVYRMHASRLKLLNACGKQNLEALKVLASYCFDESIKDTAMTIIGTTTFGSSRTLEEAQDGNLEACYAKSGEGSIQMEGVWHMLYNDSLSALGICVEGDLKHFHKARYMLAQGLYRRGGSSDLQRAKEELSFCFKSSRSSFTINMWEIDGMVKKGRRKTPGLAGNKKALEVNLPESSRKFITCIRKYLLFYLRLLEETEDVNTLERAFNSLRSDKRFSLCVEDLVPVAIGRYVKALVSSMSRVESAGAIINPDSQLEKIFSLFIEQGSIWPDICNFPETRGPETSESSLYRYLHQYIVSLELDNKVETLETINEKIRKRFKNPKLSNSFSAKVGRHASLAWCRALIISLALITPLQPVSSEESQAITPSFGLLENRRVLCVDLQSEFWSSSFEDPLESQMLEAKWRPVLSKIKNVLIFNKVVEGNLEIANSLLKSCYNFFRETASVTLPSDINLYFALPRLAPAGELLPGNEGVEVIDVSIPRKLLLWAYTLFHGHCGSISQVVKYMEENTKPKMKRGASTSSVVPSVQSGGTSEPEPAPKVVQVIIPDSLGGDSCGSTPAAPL
UniProt O22467: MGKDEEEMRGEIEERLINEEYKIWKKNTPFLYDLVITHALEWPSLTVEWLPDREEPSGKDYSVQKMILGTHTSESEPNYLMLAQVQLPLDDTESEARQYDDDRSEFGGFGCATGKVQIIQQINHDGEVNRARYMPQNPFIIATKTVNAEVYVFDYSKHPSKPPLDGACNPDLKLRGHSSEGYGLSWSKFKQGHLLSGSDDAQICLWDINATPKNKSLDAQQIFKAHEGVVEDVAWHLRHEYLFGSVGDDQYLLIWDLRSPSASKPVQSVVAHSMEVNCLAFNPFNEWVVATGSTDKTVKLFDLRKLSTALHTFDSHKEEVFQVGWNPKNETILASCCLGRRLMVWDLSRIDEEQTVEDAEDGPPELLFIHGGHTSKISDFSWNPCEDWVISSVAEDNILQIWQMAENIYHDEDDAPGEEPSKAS

T1: ASF1B-9xMyc-BLRP (pASF1B::ASF1B-9xMyc-BLRP complementing line) (Arabidopsis thaliana) (UniProt Q9LS09)
T1 sequence: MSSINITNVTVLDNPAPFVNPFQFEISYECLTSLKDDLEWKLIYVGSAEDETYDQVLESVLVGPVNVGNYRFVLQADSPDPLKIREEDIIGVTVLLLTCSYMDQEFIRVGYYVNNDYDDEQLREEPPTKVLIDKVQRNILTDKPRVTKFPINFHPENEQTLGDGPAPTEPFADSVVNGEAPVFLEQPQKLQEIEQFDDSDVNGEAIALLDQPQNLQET

T2: ASF1A-3xFlag-BLRP (pASF1A::ASF1A-3xFlag-BLRP complementing line) (Arabidopsis thaliana) (UniProt Q9C9M6)
T2 sequence: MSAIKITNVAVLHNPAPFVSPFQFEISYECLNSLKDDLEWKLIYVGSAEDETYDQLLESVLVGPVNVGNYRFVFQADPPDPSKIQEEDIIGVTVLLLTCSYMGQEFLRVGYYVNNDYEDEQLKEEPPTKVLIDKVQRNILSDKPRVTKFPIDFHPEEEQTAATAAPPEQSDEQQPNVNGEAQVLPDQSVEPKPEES

B1: UBINUCLEIN1 (UBN1), endogenous (protein, UniProt Q8RX78 1-684)
chain: MSEVNEMSGGSIGGELLRASPKVLTAGDRKLLKVELRPGDTTYVSWKKLMRDAGKVNGLSASVPDPPPNANPNLEFRIAPGHPVEIETNEQPHSNRFNAVIEKIERLYKGNDSSDGEELDGAPDDDEYDTEDSFIDDAELDEYFEVDNSTVKHDGFYVNRGKLERMEPSTTSNQQPKKRRRKDSAKPCRDAVDVSDKHTKLSITARKKDQSTAPGSWKTQESPLPSGAQDANTSVPLDDVKHSDRANHQSRNDTSHKSRETGSSSALHQKYSNKSLHQQSTSLLGKSPPNVFAEVTVVRQKENNGMHQLANVTGSRQSSQASKKDGSNVKSKTSILEKAIRELEKVVVESRPPAITENQEADTSSQAVKRRLPRDVKLKLAKVARIAQASQGKHSTELINRLMSIVGHLIQLRSLKRNLKIMIDMGDSATREKDTRFKQINNEVLDMIKAKVSLMESQAIKPEGATSDDFQDSVEKPSLKKFVMDAALEDKLCDLYDIFIDGLDEDQGPQTKKLYVNLAELWPNRLMDYRGIKHAIFRAKERRKALYGNLAKEMDQTKMKKSMKQLVPRTDCTAQPNTELVVQRQHSGEKKLIVDPNATSTSVVTSQTMVDRSNQQQPEKLKGISSSCNPTEETRVVKRKNEAVMAEKQVVLALKKPEHPQTRVIPAPQNLNIPRTTPDLNLPS
B2: UBN2, endogenous (protein, UniProt F4I700 1-717)
chain: MEDEPKLPTDDGPTFNESCKISSEILTAGDRKLLKVELLKEETTLVSWKKLMDEASKENGGLFVSAPERLLNANPNLEFRLAPGAQTENEMVNQPHPNRLNSVIAKIERLYMGKDGSDGEELDGAPDDDDYDTEDSFIDDAELDEYFEVDNSPIKHDGFFVNRGKLERIEPSATSNQQQPKKRRRKESAKPCGDVVDVSRKRAKMAKTAGGKDQSASPGPSSKKISNDSKTVQDSFSPLKAQNGNDSLVLENVKHTDKANHQPMNATSPKSKAAGSSGPLHPKCSSKSVHEQSNSPPGKSRPNVSAKSAVVRQQVNNGMPDLDIATESKTSIQISKKSGSNGRPKYSTLEKAIRNLEKLVAESRPPAATENQDADISSQAVKRGLPGDVKLHLAKVARIAYASQGEISGELINRLMGIVGHLIQIRSLKRNLKIMIDSIVTANREKDTRFQRIKSEITEMLKTQVPLVESQETNQEAGTSDDFQDVGSLGKSPVKKFVMDVALEEKLCDLYDVFVEGMDEHSGSQIRKLYSDLAQLWPNSLVDNHEIRRAICREKERRRALEGNIGKEMDQTKITKKKQTQLVPKSEGITYPDKTSGVEVKASVVLTATTTSLVDCQPAADSSFERSKQQHEKLKRTSSLSNPAAEGKKVRRKTEPALEETHLPAEKPLVLALKRQTHLKSKTHKQVQVHPQSKAHKQAQVHPKAKTQTPPDLNLPS
B3: TOUSLED, endogenous (enzyme, UniProt Q39238 1-688)
chain: MSDDMVLHFSSNSSNQSDHSLPDKIAKLEARLTGKTPSSAKPPQQQQQQQQQVSLWSSASAAVKVVTSTPPGLSETSISDSDDENTGDFLIRANTKKRQKVQESNNFSVVDHVEPQEAAYDGRKNDAESKTGLDVSKKKQGRGRASSTGRGRGSKTNNDVTKSQFVVAPVSAASQLDASDQKDFRPDGQLRNGECSLQDEDLKSLRAKIAMLEEELRKSRQDSSEYHHLVRNLENEVKDLKDQEQQGKQKTTKVISDLLISVSKTERQEARTKVRNESLRLGSVGVLRTGTIIAETWEDGQMLKDLNAQLRQLLETKEAIERQRKLLKKRQNGDKNDGTDTESGAQEEDIIPDEVYKSRLTSIKREEEAVLRERERYTLEKGLLMREMKRIRDEDGSRFNHFPVLNSRYALLNLLGKGGFSEVYKAYDLVDHRYVACKLHGLNAQWSEEKKQSYIRHANRECEIHKSLVHHHIVRLWDKFHIDMHTFCTVLEYCSGKDLDAVLKATSNLPEKEARIIIVQIVQGLVYLNKKSQKIIHYDLKPGNVLFDEFGVAKVTDFGLSKIVEDNVGSQGMELTSQGAGTYWYLPPECFELNKTPMISSKVDVWSVGVLFYQMLFGKRPFGHDQSQERILREDTIIKAKKVEFPVTRPAISNEAKDLIRRCLTYNQEDRPDVLTMAQDPYLAYSKK
B4: ASF1B, endogenous (protein, UniProt Q9LS09 1-218)
chain: T1 sequence
B5: ASF1A, endogenous (protein, UniProt Q9C9M6 1-196)
chain: T2 sequence
B6: FASCIATA1 (FAS1), endogenous (protein, UniProt Q9SXY0 1-815)
chain: MDEVSTVNENENRKTMIEPKKLNKRKREPTAIENLTSEEKESQISSLNLEMKGLFDYFREVMDKSKRTDLFSGFSECSSLNSMVALLMEEMSLPLSKLVDEIYLKLKEKTESVTMVAVKSAVVSVGQRVSYGVLNVDADVLEDDSESCLWCWETRDLKIMPSSVRGVLKLRRTCRKKIHERITAVSAMLAALQREETEKLWRSDLSKAAEKLGKILSEVDIRSFMDNMMQKNSSEMAEKDSKREEKLLLKQLEKNRCEAEKEKKRMERQVLKEKLQQEKEQKLLQKAIVDENNKEKEETESRKRIKKQQDESEKEQKRREKEQAELKKQLQVQKQASIMERFLKKSKDSSLTQPKLPSSEVTAQELSCTKHENEIGKVVQAIDNAFSTTCEATVDDIRREHFASWRQLGHLLSSSKKHWGMRRQPKSELFPKLKLSTNSGVTSDGEPNMEKQGDGCEENNFDGRQCKPSSSNRKKSRRVKQLLQFDKSCRPGFYGIWPSQSQVVKPRRPLQKDPELDYEVDSDEEWEEEEAGESLSDCEKDEDESLEEGCSKADDEDDSEDDFMVPDGYLSEDEGVQVDRMDIDPSEQDANTTSSKQDQESPEFCALLQQQKHLQNLTDHALKKTQPLIICNLTHEKVSLLAAKDLEGTQKVEQICLRALMVRQFPWSSLIEISINDIQDEDQEASKFSCSQSTPPSNSKAKIIPDSDLLTVVSTIQSCSQGINRVVETLQQKFPDVPKTKLRQKVREISDFEDSRWQVKKEVLTKLGLSPSPDKGGKRLPKTISTFFSKRCLPPSTKPQPAVEDAAERLENENA

How the values were obtained:
[1] = molecular target: T1, ASF1B-9xMyc-BLRP (pASF1B::ASF1B-9xMyc-BLRP complementing line) (Arabidopsis thaliana); test: affinity purification with mass spectrometry; IP-MS from about 20 g young inflorescence tissue of asf1a + ASF1A-3xFlag and asf1b + ASF1B-9Myc lines, Col-0 as negative control; anti-FLAG M2 magnetic beads or streptavidin beads; interactors: fold change >2 and FDR < 0.01
[2] = molecular target: T2, ASF1A-3xFlag-BLRP (pASF1A::ASF1A-3xFlag-BLRP complementing line) (Arabidopsis thaliana); test: as above

Molecule | binding [1] | binding [2]
CABIN1, endogenous (from UniProt F4JV59 1-1863) | binds | binds
AtNASP (Nuclear Autoantigenic Sperm Protein homolog), endogenous | binds | 
MULTICOPY SUPPRESSOR OF IRA1 (AtMSI1), endogenous (from UniProt O22467 1-424) | no binding | 
B1 | binds | binds
B2 | binds | binds
B3 | binds | binds
B4 |  | no binding
B5 | no binding | 
B6 | no binding | 

No constants are given. Whether binding was seen depends on the method and setting. In cells and extracts the contact can be indirect. Here binding means that the protein was enriched with, or labelled near, the bait; the list need not be complete. No binding means not detected with the bait. Tags and fused reporters may be left off the sequences shown.
